Values from PubChem BioAssay AID1224828 (NIAID, 2016).

- Aim: 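Regulators linking TLR4 signalling to p65 nuclear translocation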 (primary screen)
- Cell system: mouse RAW264.7 G9 macrophage reporter cells (GFP-p65, Tnf promoter-mCherry)
- Knock-down reagent: siRNA pool against mouse genes, 100 nM
- Duration: 2 days siRNA transfection, then 40 min LPS before fixation
- Treatment: LPS (Salmonella minnesota R595) at 10 ng/ml
- Read-out: 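Imaged p65 nuclear translocation ratio, normalised to the plate median, converted to robust z-scores and averaged across two replicates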
- Direction: p65 translocation robust z-score: higher = more nuclear NF-kappaB p65 after LPS than the plate median; nuclear/cytoplasmic p65 ratio: higher = more nuclear NF-kappaB p65
- Active means: 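Called active when z exceeds 3.3 or falls under -1.56 (median of Tlr4 controls), giving activity score of at least 50; no calls for control wells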
- Meaning of the calls: active = hit (p65 shift raised or lowered); inactive = no clear change
This is an unselected part of about 17,000 reagents tested. 762 of them (4.5%) count as active. 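Active calls include both raised and lowered p65 entry, mostly lowered; wells with fewer than 50 cells lack a z-score.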 Raw values are not corrected between plates. A number with no mark means an inactive call. The numbers tell different reagents against one gene apart. Reagent sequences are not shown.

no.	target gene	pool no.	p65 translocation robust z-score	nuclear/cytoplasmic p65 ratio, rep 1	nuclear/cytoplasmic p65 ratio, rep 2	low cell count flag
1	Rad1	1	0.14	1.41	1.66	enough cells to score
2	Tmprss6	1		1.47	1.37	fewer than 50 cells per well; well left out of scoring
3	Rep15	1	1.39	1.54	1.43	enough cells to score
4	Il2ra	1	0.46	1.49	1.48	enough cells to score
5	Mtf1	1	0.53	1.49	1.43	enough cells to score
6	Ccl25	1		1.39	1.2	fewer than 50 cells per well; well left out of scoring
7	Pdha1	1	1.12	1.54	1.61	enough cells to score
8	Lad1	1	-0.53	1.46	1.38	enough cells to score
9	Serbp1	1	0.55	1.48	1.47	enough cells to score
10	Unk	1		1.16	0.999	fewer than 50 cells per well; well left out of scoring
11	Sycn	1	0.93	1.45	1.32	enough cells to score
12	4930544M13Rik	1		1.11	1.06	fewer than 50 cells per well; well left out of scoring
13	Mela	1	-0.12	1.68	1.54	enough cells to score
14	Chmp2b	1	-0.51	1.39	1.29	enough cells to score
15	Ghsr	1	0.84	1.68	1.65	enough cells to score
16	Ift57	1	-0.88	1.43	1.18	enough cells to score
17	Dhrs1	1	0.99	1.67	1.74	enough cells to score
18	Vmn1r29	1	0.28	1.45	1.23	enough cells to score
19	Cavin3	1	-1.42	1.3	1.15	enough cells to score
20	Ca12	1	0.43	1.69	1.66	enough cells to score
21	Ftsj1	1	0.02	1.47	1.35	enough cells to score
22	E230025N22Rik	1	0.74	1.64	1.39	enough cells to score
23	Arpp21	1	-0.28	1.28	1.24	enough cells to score
24	Arpp21	2	0.06	1.57	1.43	enough cells to score
25	Rtraf	1	0.25	1.45	1.48	enough cells to score
26	Vmn2r42	1	0.17	1.36	1.29	enough cells to score
27	Fam241b	1		1.52	1.31	fewer than 50 cells per well; well left out of scoring
28	Fpr-rs4	1	0.83	1.67	1.62	enough cells to score
29	Tbx6	1	0.54	1.56	1.63	enough cells to score
30	Igf2r	1	0.71	1.49	1.5	enough cells to score

An excerpt from above, reduced to “low cell count flag”.
Ccl25: fewer than 50 cells per well; well left out of scoring
Pdha1: enough cells to score
Lad1: enough cells to score
Serbp1: enough cells to score
Unk: fewer than 50 cells per well; well left out of scoring
Sycn: enough cells to score
4930544M13Rik: fewer than 50 cells per well; well left out of scoring
Mela: enough cells to score

Next reagents follow:
no.	target gene	pool no.	p65 translocation robust z-score	nuclear/cytoplasmic p65 ratio, rep 1	nuclear/cytoplasmic p65 ratio, rep 2	low cell count flag
31	Dntt	1	0.06	1.43	1.44	enough cells to score
32	Clp1	1	0.21	1.62	1.73	enough cells to score
33	Esrrg	1	-1.6 (active)	1.19	1.22	enough cells to score
34	Ep400	1	0.67	1.72	1.53	enough cells to score
35	Zkscan2	1		1.22	1.31	fewer than 50 cells per well; well left out of scoring
36	Ccne1	1	0.16	1.49	1.4	enough cells to score
37	Spata31d1d	1		1.11	1.25	fewer than 50 cells per well; well left out of scoring
38	Taf9	1	-0.13	1.56	1.62	enough cells to score
39	Taf9	2	-0.79	1.25	1.11	enough cells to score
40	Zfp410	1	-0.35	1.44	1.82	enough cells to score
41	Ost4	1		1.65	1.31	fewer than 50 cells per well; well left out of scoring
42	Tmem198b	1	0.31	1.53	1.54	enough cells to score
43	Unc45b	1	0.4	1.67	1.83	enough cells to score
44	Grk6	1	0.77	1.75	1.67	enough cells to score
45	Prss30	1		1.43	1.46	fewer than 50 cells per well; well left out of scoring
46	Rgs17	1	0.12	1.5	1.57	enough cells to score
47	Ndufa1	1	-2 (active)	1.42	1.33	enough cells to score
48	Or5l14	1	0.37	1.69	1.66	enough cells to score
49	Map7d3	1		1.39	1.59	fewer than 50 cells per well; well left out of scoring
50	Phospho2	1	-1.69 (active)	1.22	1.2	enough cells to score
51	Manba	1	1.1	1.65	1.42	enough cells to score
52	Lamp3	1	-0.21	1.49	1.44	enough cells to score
53	BC051019	1	0	1.62	1.37	enough cells to score
54	Pdcd1	1	-1.05	1.32	1.2	enough cells to score
55	Scmh1	1	2.8	1.5	2.41	enough cells to score
56	Wfdc18	1	2.34	1.96	1.76	enough cells to score
57	Mos	1		1.55	1.23	fewer than 50 cells per well; well left out of scoring
58	Crebbp	1	-1.85 (active)	1.4	1.13	enough cells to score
59	Tbce	1	0.07	1.55	1.5	enough cells to score
